Test results as given in publication PMC12388125, “Design, Synthesis, and Pharmacological Activity of the N-(4-(1H-1,2,4-Triazol-1-yl)phenyl)-substituted-amide Derivatives” (Molecules, 2025).

Test system: GABA content in brain tissue
Experiment: GABA estimation in brain tissue
Type: in vivo, Wistar rats
Settings: 3 mg/kg, n = 5

CN1C(=O)CN=C(c2ccccc2)c2cc(Cl)ccc21 [Diazepam, reference compound]
GABA content in brain tissue vs control (2 h after administration): do not show significant differences | GABA content in brain tissue vs control (7 d continuous administration): showed significant differences
